Where “and” joins values, the source holds several entries; their conditions need not be identical. Equal entries are not always repeated. The list shows a part of the results. These are further read-outs of the screen, such as a control signal, another cell line or another target. No call is given for them. Compounds called inactive in the main read-out are mostly missing here. Words in brackets tell the shape of the fitted curve; partial curves, single points and poor fits give uncertain potencies.
assay: qHTS Assay for Identifying the Cell-Membrane Permeable IMPase Inhibitors; settings: CHO-M1 cells, IP1 accumulation, HTRF TR-FRET ratio; measured here: donor channel 620 nm AC50

Compound | AC50
CC(Oc1ccc(Cl)cc1Cl)C(=O)Nc1ccc(S(=O)(=O)Nc2cnc3ccccc3n2)cc1 (stereo unspecified) | 0.1 µM [falling, full curve, poor fit]
Cc1ccc(-c2nc3ncccc3o2)cc1NC(=O)c1cccc(OCC(C)C)c1 | 31.6 µM [rising, single point]
N#CC(C#N)=Cc1ccc(O)c(O)c1 | 25.1 µM [falling, partial curve, poor fit]
CC1(C)CC2(CCO1)NCCN1C(=O)CSC12 (stereo unspecified) | 6.31 µM [falling, single point]
CC1CCCC(C2(O)C(=O)Nc3ccccc32)C1=O (stereo unspecified) | 5.01 µM [rising, single point]
Cc1cccc(Oc2nc3c(C)cccn3c(=O)c2/C=C(\C#N)c2nc3ccccc3s2)c1 | 1.41 µM [falling, full curve, poor fit]
COc1cc2c(cc1O)C[C@H]1c3c(cc(OC)c(O)c3-2)CCN1C | 31.6 µM [falling, partial curve, poor fit]
CCN1CCN(C(=O)COc2ccc(S(=O)(=O)N(C)Cc3ccccc3)cc2)CC1 | 0.178 µM [falling, full curve, poor fit]
CN(CCc1ccccn1)Cc1ccc(Cl)cc1 | 22.4 µM [rising, single point]
Cc1ccc(C(=O)COC(=O)c2cccc(NC(=O)c3ccc(Br)cc3)c2)cc1 | 35.5 µM [rising, single point]
Cc1ccc2c(c1)CC1(CN2C)C(=O)NC(=O)N(c2cc(C)ccc2C)C1=O (stereo unspecified) | 3.16 µM [rising, single point]
CC(N)C(=O)c1ccco1 (stereo unspecified) | 0.0126 µM [rising, full curve, poor fit]
C[C@H]1CCC[C@@H](O)CCC/C=C/c2cc(O)cc(O)c2C(=O)O1 | 31.6 µM [falling, single point]
CC1CC2(O)c3nonc3CCC2N1O (stereo unspecified) | 12.6 µM [falling, partial curve, poor fit]
CCc1ccc(C(=O)C23CN4CN(CN(C4)C2)C3)cc1 | 0.126 µM [rising, single point]
COc1ccc(CCNCc2ccc(SC)cc2)cc1 | 12.6 µM [falling, single point]
CC(=O)c1ccc2c(c1)C1C(Cl)C(Sc3ccccc3[N+](=O)[O-])CC1C(c1ccccc1)N2 (stereo unspecified) | 12.6 µM [falling, partial curve, poor fit]
CN1[C@@H]2CC[C@H]1CC(OC(=O)c1cc(Cl)cc(Cl)c1)C2 (stereo partly specified) | 0.00158 µM [falling, full curve, poor fit]
COc1ccc(N=C2SCCCN2C)cc1 | 15.8 µM [rising, single point]
CCCCN1CCC(O)(c2ccccc2)C(C(=O)c2ccccc2)C1 (stereo unspecified) | 3.16 µM [falling, single point]
C[n+]1ccc(-c2ccncc2)cc1 | 0.0251 µM [rising, full curve, poor fit]
CCCN1CC(C)C(OC(C)=O)(c2ccccc2)CC1C (stereo unspecified) | 15.8 µM [falling, single point]

Some of the entries above, set out differently.

| Compound | AC50 |
| --- | --- |
| CN(CCc1ccccn1)Cc1ccc(Cl)cc1 | 22.4 µM [rising, single point] |
| Cc1ccc(C(=O)COC(=O)c2cccc(NC(=O)c3ccc(Br)cc3)c2)cc1 | 35.5 µM [rising, single point] |
| Cc1ccc2c(c1)CC1(CN2C)C(=O)NC(=O)N(c2cc(C)ccc2C)C1=O (stereo unspecified) | 3.16 µM [rising, single point] |

Continued:

Compound | AC50
Cc1ccc2c(c1)CC1(CN2C)C(=O)NC(=O)N(c2cccc(C)c2C)C1=O (stereo unspecified) | 15.8 µM [rising, single point]
CC12CN3CC(c4ccccc4)(CN(C1)C31CCCCC1)C2=O | 2.82 µM [falling, full curve]
O=C1NC(=S)N(c2ccc(Cl)cc2)C(=O)/C1=C/N1CCN(C(=O)c2ccco2)CC1 | 5.01 µM [rising, partial curve, poor fit]
CN1CCN(C(=O)Cc2nc3ccccc3[nH]2)CC1 | 0.0251 µM [rising, full curve, poor fit]
CCOC(=O)c1c(C)n(CCN2CCN(C)CC2)c2ccc(OC)cc12 | 0.01 µM [rising, full curve, poor fit]
Cc1ccc2c(c1)C1CN(C)CCC1N2C(=O)Cn1cnc2c1c(=O)n(C)c(=O)n2C (stereo unspecified) | 5.62 µM [rising, single point]
Cc1ccc(Cn2ccc(NC(=O)c3cc(-c4ccco4)on3)n2)cc1 | 31.6 µM [falling, single point]
COc1cccc(C2=NOC(C(=O)N3CCC4(CC3)OCCO4)C2)c1 (stereo unspecified) | 6.31 µM [falling, single point]
COc1cccc(OC)c1C1=NCC(=O)Nc2c1oc1ccc(Br)cc21 | 35.5 µM [falling, single point]
CCOC(=O)c1nc2ccccc2c(=O)n1-c1cccc(C)c1 | 12.6 µM [falling, partial curve, poor fit]
COCCn1cc(C(=O)N2CCC3(CC2)OCCO3)c2c3ccccc3n(C)c2c1=O | 0.02 µM [falling, full curve, poor fit]
Cc1cccc(-n2c(O)c(/C=N/Nc3nc4c(c(=O)n(C)c(=O)n4C)n3C)c(=O)[nH]c2=S)c1 | 0.398 µM [falling, full curve, poor fit]
CC(=O)C(C)=O | 0.01 µM [falling, full curve, poor fit]
Cc1noc(COc2ccccc2OCC(O)CNC(C)(C)C)n1 (stereo unspecified) | 0.631 µM [falling, full curve, poor fit]
CN(C)[C@@H]1C(=O)C(C(N)=O)=C(O)[C@@]2(O)C(=O)C3=C(O)c4c(O)cccc4[C@@](C)(O)[C@H]3[C@H](O)[C@@H]12 | 39.8 µM [rising, single point]
Nc1c2c(nc3sc4c(c13)CCCC4)CCCCC2 | 0.316 µM [falling, partial curve]
O=C(Cn1ncc2c3ccccc3n(Cc3ccccc3)c2c1=O)N1CCC2(CC1)OCCO2 | 0.00398 µM [falling, full curve, poor fit]
CCOC(=O)N1CCN(Cc2cn3ccccc3n2)CC1 | 0.01 µM [rising, full curve, poor fit]
CCN(CC)S(=O)(=O)c1ccc(N=Cc2c(O)n(-c3ccccc3)c(=O)[nH]c2=O)cc1 | 6.31 µM [rising, partial curve, poor fit]
Cn1c(=O)cc(OCCCC(=O)N2CCC3(CC2)OCCO3)c2ccccc21 | 0.00501 µM [falling, full curve]
CN(C)CCCN=Cc1c(O)n(CCc2ccc(F)cc2)c(=O)[nH]c1=O | 0.00794 µM [falling, full curve, poor fit]
N#C/C(=C\c1ccc(O)c(O)c1)C(N)=S | 158 nM [falling, full curve, poor fit] and 12.6 µM [falling, partial curve]

Compound | AC50
CN1CCCC(C(=O)c2ccccc2)C1 (stereo unspecified) | 3.16 µM [rising, partial curve]
CCOP(=O)(OCC)C(c1ccccc1)N(C)C=O (stereo unspecified) | 3.98 µM [rising, partial curve]
Cc1ccc(-n2c(-c3nn(C)c(C)c3Cl)n[nH]c2=S)cc1 | 1.58 µM [falling, partial curve, poor fit]
Cc1nc2ncnn2c(C)c1CCC(=O)N1CCC2(CC1)OCCO2 | 3.98 µM [rising, full curve, poor fit]
CN1CCN(c2ccc(C=O)cc2)CC1 | 0.501 µM [falling, partial curve]
CCOc1ccc(Oc2nc(NCC(C)C)nc(N(C)C)n2)nn1 | 11.2 µM [falling, single point]
CN(C)C(=O)Oc1ccc[n+](C)c1 | 25.1 µM [rising, single point]
Cc1ccc(-n2nnnc2SCC(=O)Nc2sc(C)c(C)c2C#N)cc1C | 0.02 µM [falling, single point]
COc1ccc(OC)c(NC(=O)Cn2cc(C(=O)c3ccccc3F)c3ccccc32)c1 | 0.00562 µM [falling, full curve, poor fit]
O=c1[nH]c2ccccc2n1C1CCN(CCCC(c2ccc(F)cc2)c2ccc(F)cc2)CC1 | 0.00794 µM [falling, full curve, poor fit]
CCOc1ccc(CNC(=O)c2cccc(Nc3nc4ccccc4n4nnnc34)c2)cc1OC | 17.8 µM [rising, single point]
C=CCn1c(O)c(C(CC)=Nc2ccccc2NC(=O)CC)c(=O)[nH]c1=O | 35.5 µM [rising, single point]
NC[C@H](CS(=O)(=O)O)c1ccc(Cl)cc1 | 12.6 µM [falling, partial curve, poor fit]
COCCN(CCOC)S(=O)(=O)c1ccc(C(=O)Nc2sc3c(c2C(N)=O)CCCC3)cc1 | 0.178 µM [falling, full curve, poor fit]
C=CCn1c(O)c(C(CC)=NCCC2=CCCCC2)c(=O)[nH]c1=O | 1.58 µM [falling, partial curve, poor fit]
CCn1nc(-c2cccs2)nc2c(=O)n(C)c(=O)nc1-2 | 20 µM [falling, single point]
COc1cc2c(cc1O)-c1c(O)c(OC)cc3c1[C@H](C2)N(C)CC3 | 15.8 µM [falling, partial curve, poor fit]
CCOC(=O)C1=C(N)Oc2cc(C)oc(=O)c2C12C(=O)N1c3c(cccc32)C(C)=CC1(C)C (stereo unspecified) | 10 µM [falling, partial curve, poor fit]
CC1=C(O)C(=O)[C@H]2O[C@@H]2C1=O | 10 µM [falling, full curve]
Fc1ccc2c(c1)nnn2C1CCN(Cc2nnnn2CCc2ccccc2)CC1 | 1.58 µM [rising, partial curve]
N[C@H](CP(=O)(O)O)C(=O)O | 0.2 µM [falling, partial curve, poor fit]
CCOc1ccc(CC2C(=O)NC(=O)N(c3ccc(CC)cc3)C2=O)cc1 (stereo unspecified) | 0.501 µM [falling, full curve, poor fit]
